Source: PubChem BioAssay AID1224830 (NIAID, 2016)
In all, the deposit lists about 18,000 reagents; below is a random part of them. About 2,900 of all reagents (16%) count as active. 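Calls are made per well; low scores hint the gene aids the LPS response, high scores that it dampens it.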 Repeated entries: four replicate wells of each siRNA pool.

Purpose: 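Regulators of TLR4 signalling towards TNF-alpha in macrophage-like cells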 (primary screen)
System: human THP-1 monocytic leukaemia cells, TNF dual-luciferase reporter clone, PMA-differentiated to macrophage-like cells
Reagents: siRNA pool against human genes, 50 nM
Time to read-out: LPS for 4 h, given about 3 days after siRNA transfection
Conditions: bacterial LPS (TLR4 ligand), 10 ng/ml
Read-out: 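TNF firefly reporter luminescence divided by renilla, normalised to the plate median, then turned into a robust z-score for each replicate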
Reading the numbers: TNF reporter robust z-score: higher = stronger TNF reporter response to LPS
Rule for the call: 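a well is active when its z-score exceeds 2.8 or falls below -1.5; control wells carry no call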

Gene | TNF reporter robust z-score | Call
BPIFB6 (BPI fold containing family B member 6) | 0.65 | inactive
BPIFB6 (BPI fold containing family B member 6) | 0.43 | inactive
BPIFB6 (BPI fold containing family B member 6) | 0.56 | inactive
BPIFB6 (BPI fold containing family B member 6) | 0.42 | inactive
DHX30 (DExH-box helicase 30) | 0.48 | inactive
DHX30 (DExH-box helicase 30) | 0.43 | inactive
DHX30 (DExH-box helicase 30) | 0.93 | inactive
DHX30 (DExH-box helicase 30) | 0.74 | inactive
SLC15A2 | 0.55 | inactive
SLC15A2 | 0.12 | inactive
SLC15A2 | -0.34 | inactive
SLC15A2 | 307 | active
NAALADL1 (N-acetylated alpha-linked acidic dipeptidase like 1) | 1.03 | inactive
NAALADL1 (N-acetylated alpha-linked acidic dipeptidase like 1) | 1.35 | inactive
NAALADL1 (N-acetylated alpha-linked acidic dipeptidase like 1) | -0.77 | inactive
NAALADL1 (N-acetylated alpha-linked acidic dipeptidase like 1) | -0.7 | inactive
DOK7 (docking protein 7) | -0.12 | inactive
DOK7 (docking protein 7) | -0.38 | inactive
DOK7 (docking protein 7) | 1.04 | inactive
DOK7 (docking protein 7) | -0.39 | inactive
RSPO1 (R-spondin 1) | -0.29 | inactive
RSPO1 (R-spondin 1) | 0.82 | inactive
RSPO1 (R-spondin 1) | 0.36 | inactive
RSPO1 (R-spondin 1) | 0.97 | inactive
TBX19 (T-box transcription factor 19) | 2.04 | inactive
TBX19 (T-box transcription factor 19) | -0.48 | inactive
TBX19 (T-box transcription factor 19) | -0.91 | inactive
TBX19 (T-box transcription factor 19) | 2 | inactive
HPF1 (histone PARylation factor 1) | -0.8 | inactive
HPF1 (histone PARylation factor 1) | -1 | inactive
HPF1 (histone PARylation factor 1) | -0.26 | inactive
HPF1 (histone PARylation factor 1) | 0.07 | inactive
NDUFS2 (NADH:ubiquinone oxidoreductase core subunit S2) | 2.03 | inactive
NDUFS2 (NADH:ubiquinone oxidoreductase core subunit S2) | 1.62 | inactive
NDUFS2 (NADH:ubiquinone oxidoreductase core subunit S2) | 1.36 | inactive
NDUFS2 (NADH:ubiquinone oxidoreductase core subunit S2) | 2.33 | inactive
SCFD1 (sec1 family domain containing 1) | 0.78 | inactive
SCFD1 (sec1 family domain containing 1) | 0.6 | inactive
SCFD1 (sec1 family domain containing 1) | -0.23 | inactive
SCFD1 (sec1 family domain containing 1) | 0.83 | inactive
SGMS2 (sphingomyelin synthase 2) | 0.51 | inactive
SGMS2 (sphingomyelin synthase 2) | 1.21 | inactive
SGMS2 (sphingomyelin synthase 2) | 1.13 | inactive
SGMS2 (sphingomyelin synthase 2) | -0.04 | inactive
LY86 (lymphocyte antigen 86) | -0.69 | inactive
LY86 (lymphocyte antigen 86) | -0.51 | inactive
LY86 (lymphocyte antigen 86) | 0.17 | inactive
LY86 (lymphocyte antigen 86) | -0.8 | inactive
GAPDH (glyceraldehyde-3-phosphate dehydrogenase) | -0.61 | inactive
GAPDH (glyceraldehyde-3-phosphate dehydrogenase) | -0.92 | inactive
GAPDH (glyceraldehyde-3-phosphate dehydrogenase) | -0.62 | inactive
GAPDH (glyceraldehyde-3-phosphate dehydrogenase) | 0.22 | inactive
EML1 (EMAP like 1) | -1.1 | inactive
EML1 (EMAP like 1) | -0.54 | inactive
EML1 (EMAP like 1) | -0.93 | inactive
EML1 (EMAP like 1) | -0.18 | inactive
ATP10A (ATPase phospholipid transporting 10A (putative)) | -0.21 | inactive
ATP10A (ATPase phospholipid transporting 10A (putative)) | 0.97 | inactive
ATP10A (ATPase phospholipid transporting 10A (putative)) | -0.31 | inactive
ATP10A (ATPase phospholipid transporting 10A (putative)) | 0.38 | inactive
KLHL18 (kelch like family member 18) | 1.25 | inactive
KLHL18 (kelch like family member 18) | -0.05 | inactive
KLHL18 (kelch like family member 18) | -0.56 | inactive
KLHL18 (kelch like family member 18) | -0.35 | inactive
CHTOP (chromatin target of PRMT1) | -1.54 | active
CHTOP (chromatin target of PRMT1) | -1.21 | inactive
CHTOP (chromatin target of PRMT1) | -1.11 | inactive
CHTOP (chromatin target of PRMT1) | -1.67 | active
SF3B6 (splicing factor 3b subunit 6) | -1.02 | inactive
SF3B6 (splicing factor 3b subunit 6) | -1.41 | inactive
SF3B6 (splicing factor 3b subunit 6) | -1.17 | inactive
TIRAP (TIR domain containing adaptor protein) | -2.11 | active
TIRAP (TIR domain containing adaptor protein) | -2.17 | active
TIRAP (TIR domain containing adaptor protein) | -2.21 | active
TIRAP (TIR domain containing adaptor protein) | -1.96 | active
SUOX (sulfite oxidase) | -0.28 | inactive
SUOX (sulfite oxidase) | -0.24 | inactive
SUOX (sulfite oxidase) | -0.45 | inactive
SUOX (sulfite oxidase) | -0.26 | inactive
KRTDAP (keratinocyte differentiation associated protein) | -1.13 | inactive
KRTDAP (keratinocyte differentiation associated protein) | -1.18 | inactive
KRTDAP (keratinocyte differentiation associated protein) | -1.45 | inactive
KRTDAP (keratinocyte differentiation associated protein) | -1.47 | inactive
ATP6V1C1 (ATPase H+ transporting V1 subunit C1) | -0.48 | inactive
ATP6V1C1 (ATPase H+ transporting V1 subunit C1) | 0.87 | inactive
ATP6V1C1 (ATPase H+ transporting V1 subunit C1) | -0.35 | inactive
ATP6V1C1 (ATPase H+ transporting V1 subunit C1) | -0.85 | inactive
ACVR1C (activin A receptor type 1C) | -0.25 | inactive
ACVR1C (activin A receptor type 1C) | 0.16 | inactive
ACVR1C (activin A receptor type 1C) | 0.94 | inactive
ACVR1C (activin A receptor type 1C) | -0.42 | inactive
SERBP1 (SERPINE1 mRNA binding protein 1) | -0.76 | inactive
SERBP1 (SERPINE1 mRNA binding protein 1) | 0.85 | inactive
SERBP1 (SERPINE1 mRNA binding protein 1) | 0.19 | inactive
SERBP1 (SERPINE1 mRNA binding protein 1) | -0.88 | inactive
DRAP1 (DR1 associated protein 1) | 0.58 | inactive
DRAP1 (DR1 associated protein 1) | 0.08 | inactive
DRAP1 (DR1 associated protein 1) | 0.38 | inactive
DRAP1 (DR1 associated protein 1) | -0.51 | inactive
MTSS2 (MTSS I-BAR domain containing 2) | 0.38 | inactive
MTSS2 (MTSS I-BAR domain containing 2) | 1.87 | inactive
MTSS2 (MTSS I-BAR domain containing 2) | 1.67 | inactive
MTSS2 (MTSS I-BAR domain containing 2) | 2.1 | inactive
ELL2 (elongation factor for RNA polymerase II 2) | -0.25 | inactive
ELL2 (elongation factor for RNA polymerase II 2) | -0.01 | inactive
ELL2 (elongation factor for RNA polymerase II 2) | 0.11 | inactive
ELL2 (elongation factor for RNA polymerase II 2) | 1.08 | inactive
ASB18 (ankyrin repeat and SOCS box containing 18) | 1.42 | inactive
ASB18 (ankyrin repeat and SOCS box containing 18) | 1.36 | inactive
ASB18 (ankyrin repeat and SOCS box containing 18) | -0.19 | inactive
ASB18 (ankyrin repeat and SOCS box containing 18) | 2.55 | inactive
